Laboratory results reported in the supplement of paper PMC10849652.
This is one part of the list.

Sequences of proteins named here, by UniProt entry; tags and fusion partners are left off. A change or cut given only in a name is not applied to a line headed by its entry.
UniProt P13489: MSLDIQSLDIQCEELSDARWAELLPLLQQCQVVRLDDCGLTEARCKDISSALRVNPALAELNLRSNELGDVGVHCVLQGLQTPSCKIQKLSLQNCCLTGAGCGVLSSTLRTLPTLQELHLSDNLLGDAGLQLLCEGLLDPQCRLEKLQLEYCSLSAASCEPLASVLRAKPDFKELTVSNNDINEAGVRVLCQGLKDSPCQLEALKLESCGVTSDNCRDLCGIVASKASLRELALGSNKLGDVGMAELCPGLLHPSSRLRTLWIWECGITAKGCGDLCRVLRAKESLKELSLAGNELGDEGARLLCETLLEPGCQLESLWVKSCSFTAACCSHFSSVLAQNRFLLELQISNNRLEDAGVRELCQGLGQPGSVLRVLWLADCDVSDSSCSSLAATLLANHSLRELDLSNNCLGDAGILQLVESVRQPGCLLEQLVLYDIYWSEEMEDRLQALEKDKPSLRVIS
UniProt P04843: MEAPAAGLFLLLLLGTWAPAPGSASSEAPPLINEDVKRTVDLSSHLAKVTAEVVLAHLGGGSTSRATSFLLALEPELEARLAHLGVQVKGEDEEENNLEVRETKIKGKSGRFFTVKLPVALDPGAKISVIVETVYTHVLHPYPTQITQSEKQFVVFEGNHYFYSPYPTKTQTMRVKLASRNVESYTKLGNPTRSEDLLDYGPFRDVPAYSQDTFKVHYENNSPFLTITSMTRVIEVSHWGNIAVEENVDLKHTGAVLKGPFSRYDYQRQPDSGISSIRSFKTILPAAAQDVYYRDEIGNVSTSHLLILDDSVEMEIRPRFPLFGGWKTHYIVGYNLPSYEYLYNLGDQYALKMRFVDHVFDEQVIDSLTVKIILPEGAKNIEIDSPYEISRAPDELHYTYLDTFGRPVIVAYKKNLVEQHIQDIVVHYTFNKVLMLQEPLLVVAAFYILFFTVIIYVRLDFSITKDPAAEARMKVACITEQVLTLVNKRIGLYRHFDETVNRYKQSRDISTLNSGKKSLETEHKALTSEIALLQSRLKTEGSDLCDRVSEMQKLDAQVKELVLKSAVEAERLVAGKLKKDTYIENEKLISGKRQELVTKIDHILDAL
UniProt P10155: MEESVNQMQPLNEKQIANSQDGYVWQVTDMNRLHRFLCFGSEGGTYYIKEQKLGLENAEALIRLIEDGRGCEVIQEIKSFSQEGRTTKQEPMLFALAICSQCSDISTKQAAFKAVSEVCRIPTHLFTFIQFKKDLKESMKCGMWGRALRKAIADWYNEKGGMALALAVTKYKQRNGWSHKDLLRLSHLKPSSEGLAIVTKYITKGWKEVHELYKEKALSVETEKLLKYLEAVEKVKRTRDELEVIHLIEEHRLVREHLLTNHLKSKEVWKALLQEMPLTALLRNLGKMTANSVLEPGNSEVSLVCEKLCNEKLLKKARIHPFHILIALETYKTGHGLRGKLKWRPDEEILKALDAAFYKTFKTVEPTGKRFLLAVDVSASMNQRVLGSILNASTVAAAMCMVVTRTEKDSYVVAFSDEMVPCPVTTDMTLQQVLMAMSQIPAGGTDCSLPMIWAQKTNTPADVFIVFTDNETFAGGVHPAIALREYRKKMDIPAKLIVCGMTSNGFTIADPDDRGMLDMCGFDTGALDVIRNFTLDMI
UniProt Q7LG56, whole entry, looked up: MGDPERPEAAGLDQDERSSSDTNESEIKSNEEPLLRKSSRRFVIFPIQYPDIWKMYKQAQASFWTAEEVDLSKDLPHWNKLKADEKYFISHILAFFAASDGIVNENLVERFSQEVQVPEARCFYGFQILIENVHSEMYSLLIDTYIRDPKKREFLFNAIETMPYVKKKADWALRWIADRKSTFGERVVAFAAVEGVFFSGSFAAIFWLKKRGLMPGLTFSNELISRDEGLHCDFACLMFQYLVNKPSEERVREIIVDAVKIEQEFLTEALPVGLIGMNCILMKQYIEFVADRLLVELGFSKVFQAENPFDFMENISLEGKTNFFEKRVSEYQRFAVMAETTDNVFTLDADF
UniProt O75695: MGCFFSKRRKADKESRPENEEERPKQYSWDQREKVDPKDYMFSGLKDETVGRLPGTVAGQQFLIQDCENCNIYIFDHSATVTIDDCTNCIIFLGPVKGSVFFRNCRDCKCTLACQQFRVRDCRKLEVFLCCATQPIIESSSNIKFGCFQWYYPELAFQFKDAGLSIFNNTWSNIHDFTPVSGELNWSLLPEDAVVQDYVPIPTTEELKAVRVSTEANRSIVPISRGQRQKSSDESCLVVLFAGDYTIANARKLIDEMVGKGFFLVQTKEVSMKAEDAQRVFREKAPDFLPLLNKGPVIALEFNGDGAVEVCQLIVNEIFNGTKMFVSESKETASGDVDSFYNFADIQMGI
UniProt O75818: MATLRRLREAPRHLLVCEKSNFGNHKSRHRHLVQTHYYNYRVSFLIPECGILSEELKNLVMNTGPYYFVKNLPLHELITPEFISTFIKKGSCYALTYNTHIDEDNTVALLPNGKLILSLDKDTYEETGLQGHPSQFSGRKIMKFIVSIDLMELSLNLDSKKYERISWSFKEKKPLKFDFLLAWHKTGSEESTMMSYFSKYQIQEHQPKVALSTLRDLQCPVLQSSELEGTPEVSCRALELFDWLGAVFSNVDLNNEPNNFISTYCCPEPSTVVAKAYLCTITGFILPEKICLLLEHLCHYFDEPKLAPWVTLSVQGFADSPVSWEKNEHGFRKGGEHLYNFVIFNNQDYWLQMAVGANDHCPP
UniProt Q96BH1: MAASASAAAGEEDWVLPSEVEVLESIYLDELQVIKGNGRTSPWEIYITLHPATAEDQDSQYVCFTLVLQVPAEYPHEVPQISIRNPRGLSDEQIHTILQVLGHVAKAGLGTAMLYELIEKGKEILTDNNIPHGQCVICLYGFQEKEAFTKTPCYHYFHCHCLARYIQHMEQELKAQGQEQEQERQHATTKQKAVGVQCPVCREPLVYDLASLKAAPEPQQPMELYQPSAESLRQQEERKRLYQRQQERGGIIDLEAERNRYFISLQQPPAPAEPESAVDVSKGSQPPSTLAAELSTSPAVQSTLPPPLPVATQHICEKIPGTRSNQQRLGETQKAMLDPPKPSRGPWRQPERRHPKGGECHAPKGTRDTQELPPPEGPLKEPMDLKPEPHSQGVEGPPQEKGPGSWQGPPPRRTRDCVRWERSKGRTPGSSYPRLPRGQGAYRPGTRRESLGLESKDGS
UniProt Q86WX3: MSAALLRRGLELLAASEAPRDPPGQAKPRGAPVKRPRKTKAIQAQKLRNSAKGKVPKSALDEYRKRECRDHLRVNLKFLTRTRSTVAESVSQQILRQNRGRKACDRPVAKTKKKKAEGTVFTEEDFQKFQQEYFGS
UniProt Q9P2E9: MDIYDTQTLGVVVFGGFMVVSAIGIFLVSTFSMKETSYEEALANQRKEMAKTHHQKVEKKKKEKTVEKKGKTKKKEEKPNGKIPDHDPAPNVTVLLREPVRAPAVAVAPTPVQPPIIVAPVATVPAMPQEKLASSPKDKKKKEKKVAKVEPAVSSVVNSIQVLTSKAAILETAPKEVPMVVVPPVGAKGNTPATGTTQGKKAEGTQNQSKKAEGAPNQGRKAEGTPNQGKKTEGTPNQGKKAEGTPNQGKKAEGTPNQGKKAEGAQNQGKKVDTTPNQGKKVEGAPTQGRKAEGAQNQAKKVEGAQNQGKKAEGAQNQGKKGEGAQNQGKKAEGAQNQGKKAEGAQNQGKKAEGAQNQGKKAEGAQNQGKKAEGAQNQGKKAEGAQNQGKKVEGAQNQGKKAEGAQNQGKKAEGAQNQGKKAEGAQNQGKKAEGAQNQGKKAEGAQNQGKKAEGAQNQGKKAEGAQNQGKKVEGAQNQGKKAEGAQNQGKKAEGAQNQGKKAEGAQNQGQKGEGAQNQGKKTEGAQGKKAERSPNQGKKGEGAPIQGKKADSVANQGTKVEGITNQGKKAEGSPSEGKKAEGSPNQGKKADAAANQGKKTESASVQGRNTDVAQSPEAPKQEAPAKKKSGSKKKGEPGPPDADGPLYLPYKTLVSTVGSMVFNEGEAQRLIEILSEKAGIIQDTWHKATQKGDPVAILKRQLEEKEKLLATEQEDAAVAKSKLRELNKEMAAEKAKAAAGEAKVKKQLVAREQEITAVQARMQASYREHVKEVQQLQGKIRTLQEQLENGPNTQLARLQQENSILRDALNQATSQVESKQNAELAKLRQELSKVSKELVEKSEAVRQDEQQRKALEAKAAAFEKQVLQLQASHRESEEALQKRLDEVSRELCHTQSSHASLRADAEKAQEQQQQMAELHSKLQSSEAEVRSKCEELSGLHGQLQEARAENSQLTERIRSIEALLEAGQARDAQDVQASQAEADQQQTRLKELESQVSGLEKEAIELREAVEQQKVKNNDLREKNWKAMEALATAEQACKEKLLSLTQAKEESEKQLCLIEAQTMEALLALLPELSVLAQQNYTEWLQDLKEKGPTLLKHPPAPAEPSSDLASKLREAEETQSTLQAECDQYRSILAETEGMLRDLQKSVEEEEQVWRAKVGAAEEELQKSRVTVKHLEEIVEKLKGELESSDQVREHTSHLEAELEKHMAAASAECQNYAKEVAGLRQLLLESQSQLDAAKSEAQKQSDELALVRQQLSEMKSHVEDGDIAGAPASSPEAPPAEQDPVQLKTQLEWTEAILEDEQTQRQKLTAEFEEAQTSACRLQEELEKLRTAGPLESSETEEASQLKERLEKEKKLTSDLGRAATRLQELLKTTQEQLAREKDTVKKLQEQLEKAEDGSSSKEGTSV
UniProt P10301: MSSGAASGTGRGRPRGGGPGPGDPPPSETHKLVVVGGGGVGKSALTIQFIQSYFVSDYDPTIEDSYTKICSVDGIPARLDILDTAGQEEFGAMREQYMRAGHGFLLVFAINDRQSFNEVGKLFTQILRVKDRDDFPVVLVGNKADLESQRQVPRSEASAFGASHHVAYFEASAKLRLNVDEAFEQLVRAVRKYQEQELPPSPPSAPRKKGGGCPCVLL
UniProt O60942: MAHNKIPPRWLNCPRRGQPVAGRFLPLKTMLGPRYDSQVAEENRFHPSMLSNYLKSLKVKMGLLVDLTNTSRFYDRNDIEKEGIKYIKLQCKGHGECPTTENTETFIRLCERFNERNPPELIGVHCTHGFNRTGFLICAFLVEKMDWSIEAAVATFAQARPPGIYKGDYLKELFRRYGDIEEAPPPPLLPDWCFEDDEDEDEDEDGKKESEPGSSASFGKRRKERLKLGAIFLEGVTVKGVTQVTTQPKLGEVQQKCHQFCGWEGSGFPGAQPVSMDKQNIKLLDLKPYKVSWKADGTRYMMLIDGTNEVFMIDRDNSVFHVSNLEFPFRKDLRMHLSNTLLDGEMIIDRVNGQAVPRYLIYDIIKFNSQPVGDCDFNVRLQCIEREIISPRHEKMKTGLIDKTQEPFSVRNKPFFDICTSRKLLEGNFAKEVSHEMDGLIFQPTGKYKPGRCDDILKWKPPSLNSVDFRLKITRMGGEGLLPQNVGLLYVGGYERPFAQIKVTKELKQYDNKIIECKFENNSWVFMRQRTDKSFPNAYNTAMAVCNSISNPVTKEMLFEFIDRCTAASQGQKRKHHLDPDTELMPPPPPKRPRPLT
UniProt Q9H6T3, whole entry, looked up: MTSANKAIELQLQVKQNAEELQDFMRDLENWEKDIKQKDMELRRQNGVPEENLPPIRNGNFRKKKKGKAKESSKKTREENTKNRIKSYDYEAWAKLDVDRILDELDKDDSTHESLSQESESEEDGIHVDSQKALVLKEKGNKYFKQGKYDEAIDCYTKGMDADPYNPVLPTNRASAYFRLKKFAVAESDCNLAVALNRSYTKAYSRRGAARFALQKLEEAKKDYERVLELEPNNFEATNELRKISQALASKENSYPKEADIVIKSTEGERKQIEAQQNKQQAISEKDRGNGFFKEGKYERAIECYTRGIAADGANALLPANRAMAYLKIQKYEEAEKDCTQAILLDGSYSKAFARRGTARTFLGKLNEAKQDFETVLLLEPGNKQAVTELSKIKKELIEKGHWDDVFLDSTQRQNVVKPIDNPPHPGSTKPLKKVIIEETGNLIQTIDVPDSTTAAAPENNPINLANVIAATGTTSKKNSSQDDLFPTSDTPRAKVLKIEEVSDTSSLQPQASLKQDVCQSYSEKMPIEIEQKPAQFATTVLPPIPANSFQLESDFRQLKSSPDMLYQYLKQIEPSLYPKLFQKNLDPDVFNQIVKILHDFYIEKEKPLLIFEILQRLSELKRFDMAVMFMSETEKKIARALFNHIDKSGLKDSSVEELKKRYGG
UniProt Q92901: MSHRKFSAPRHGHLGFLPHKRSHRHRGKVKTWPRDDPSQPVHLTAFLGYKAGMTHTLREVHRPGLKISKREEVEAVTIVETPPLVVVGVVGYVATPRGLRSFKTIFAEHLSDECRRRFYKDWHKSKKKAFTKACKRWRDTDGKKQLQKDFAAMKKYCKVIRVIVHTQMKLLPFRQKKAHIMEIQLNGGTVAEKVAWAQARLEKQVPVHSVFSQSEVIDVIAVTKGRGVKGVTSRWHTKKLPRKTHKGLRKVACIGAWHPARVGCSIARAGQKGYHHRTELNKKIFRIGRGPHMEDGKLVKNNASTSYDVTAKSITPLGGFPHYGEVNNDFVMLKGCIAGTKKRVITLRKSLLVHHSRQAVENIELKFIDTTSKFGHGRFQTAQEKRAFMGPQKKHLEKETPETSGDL

compound: COc1cc(C(=O)O)ccc1NC(=O)[C@@H]1N[C@@H](CC(C)(C)C)[C@](C#N)(c2ccc(Cl)cc2F)[C@H]1c1cccc(Cl)c1F [idasanutlin]; experiment: log2 fold change, soluble protein after heating vs DMSO (PISA); higher = thermal stabilisation; K562 cells, 10 uM, 30 min; active = over 0.2 and 3.5 SD of the protein, either way, in both replicates (recomputed)
How it was run: (§1)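 K562 cells at 2×10^6 cells/mL were exposed to 10 μM compound for 30 min, then aliquots were heated for 3 min across 48°C-58°C, pooled, and extracted in PBS containing 0.5% NP-40 at 4°C. The supernatant after 21,000xg for 90 min was taken as soluble protein and measured by TMTpro 16plex LC-MS/MS with channel sums equalised. Thermal stability is reported relative to control samples, with values from duplicates. Fold changes are given on a log2 scale.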

log2 fold change, inactive:
RPL9 (UniProt P32969) 0.304
RNH1 (UniProt P13489) -0.084
RPL24 (UniProt P83731) 0.207
RPS17 (UniProt P08708) 0.094
RPL17 isoform 3 (UniProt P18621) 0.256
RPN1 (UniProt P04843) -0.034
RPP30 isoform 2 (UniProt P78346) 0.037
RPL15 (UniProt P61313) 0.41
RO60 (UniProt P10155) 0.009
RRM2B isoform 6 (UniProt Q7LG56) 0.023
RP2 (UniProt O75695) -0.087
RPP40 (UniProt O75818) -0.033
RPL36 (UniProt Q9Y3U8) 0.303
RPL11 (UniProt P62913) 0.248
RPL13 (UniProt P26373) 0.347
RNF25 (UniProt Q96BH1) -0.027
RPL8 (UniProt P62917) 0.341
RPS27 (UniProt P42677) 0.107
RPS19BP1 (UniProt Q86WX3) 0.131
RPL35 (UniProt P42766) 0.182
RPS10 (UniProt P46783) 0.058
RRBP1 (UniProt Q9P2E9) 0.224
RPL22 (UniProt P35268) 0.16
RPS6 (UniProt P62753) 0.091
RRAS (UniProt P10301) -0.039
RPL7 (UniProt P18124) 0.369
RPL13A (UniProt P40429) 0.306
RPL26 (UniProt P61254) 0.196
RPS29 (UniProt P62273) 0.273
RNGTT (UniProt O60942) -0.114
RPAP3 (UniProt Q9H6T3) 0.004
RPL3L (UniProt Q92901) 0.334

compound: COc1cc(Nc2ncc3c(n2)-c2ccc(Cl)cc2C(c2c(F)cccc2OC)=NC3)ccc1C(=O)O [alisertib]; experiment: as above
How it was run: as §1

log2 fold change, inactive:
RPL9 (UniProt P32969) -0.16
RNH1 (UniProt P13489) -0.02
RPL24 (UniProt P83731) -0.159
RPS17 (UniProt P08708) -0.09
RPL17 isoform 3 (UniProt P18621) -0.169
RPN1 (UniProt P04843) -0.046
RPP30 isoform 2 (UniProt P78346) -0.115
RPL15 (UniProt P61313) -0.19
RO60 (UniProt P10155) -0.08
RRM2B isoform 6 (UniProt Q7LG56) -0.032
RP2 (UniProt O75695) 0.425
RPP40 (UniProt O75818) -0.07
RPL36 (UniProt Q9Y3U8) -0.422
RPL11 (UniProt P62913) -0.124
RPL13 (UniProt P26373) -0.149
RNF25 (UniProt Q96BH1) 0.013
RPL8 (UniProt P62917) -0.239
RPS27 (UniProt P42677) 0.044
RPS19BP1 (UniProt Q86WX3) -0.16
RPL35 (UniProt P42766) -0.193
RPS10 (UniProt P46783) -0.104
RRBP1 (UniProt Q9P2E9) -0.057
RPL22 (UniProt P35268) -0.037
RPS6 (UniProt P62753) -0.116
RRAS (UniProt P10301) -0.071
RPL7 (UniProt P18124) -0.157
RPL13A (UniProt P40429) -0.181
RPL26 (UniProt P61254) -0.276
RPS29 (UniProt P62273) -0.211
RNGTT (UniProt O60942) -0.072
RPAP3 (UniProt Q9H6T3) -0.063
RPL3L (UniProt Q92901) -0.186

compound: COc1cc2nc(-c3cc(F)ccc3O)nc(N[C@@H]3CNC[C@H]3C(C)(C)O)c2cc1OC; experiment: as above
How it was run: as §1

log2 fold change, inactive:
RPL9 (UniProt P32969) -0.137
RNH1 (UniProt P13489) -0.002
RPL24 (UniProt P83731) -0.039
RPS17 (UniProt P08708) -0.064
RPL17 isoform 3 (UniProt P18621) -0.115
RPN1 (UniProt P04843) -0.002
RPP30 isoform 2 (UniProt P78346) -0.073
RPL15 (UniProt P61313) -0.167
RO60 (UniProt P10155) -0.04
RRM2B isoform 6 (UniProt Q7LG56) -0.001
RP2 (UniProt O75695) 0.044
RPP40 (UniProt O75818) 0.002
RPL36 (UniProt Q9Y3U8) -0.171
RPL11 (UniProt P62913) -0.094
RPL13 (UniProt P26373) -0.119
RNF25 (UniProt Q96BH1) -0.012
RPL8 (UniProt P62917) -0.21
RPS27 (UniProt P42677) 0.07
RPS19BP1 (UniProt Q86WX3) 0.021
RPL35 (UniProt P42766) -0.082
RPS10 (UniProt P46783) -0.005
RRBP1 (UniProt Q9P2E9) -0.05
RPL22 (UniProt P35268) -0.031
RPS6 (UniProt P62753) -0.27
RRAS (UniProt P10301) 0.063
RPL7 (UniProt P18124) -0.151
RPL13A (UniProt P40429) -0.266
RPL26 (UniProt P61254) -0.117
RPS29 (UniProt P62273) -0.082
RNGTT (UniProt O60942) 0
RPAP3 (UniProt Q9H6T3) 0.059
RPL3L (UniProt Q92901) -0.155
